Measurements from patent US20250340607A1 (UNIVERSITY OF CHICAGO, published 2025).
These are yes or no findings as the source states them, for the method shown. Some binding calls cover weakened binding; strength is not graded here.

Target: T1, murine Flt3 (R&D 768-F3-050) (murine, UniProt Q00342 28-544)
T1 construct: Bought recombinant protein coated on the ELISA plate; also called receptor for Flt3L; recombinant CD135
T1 sequence (looked up): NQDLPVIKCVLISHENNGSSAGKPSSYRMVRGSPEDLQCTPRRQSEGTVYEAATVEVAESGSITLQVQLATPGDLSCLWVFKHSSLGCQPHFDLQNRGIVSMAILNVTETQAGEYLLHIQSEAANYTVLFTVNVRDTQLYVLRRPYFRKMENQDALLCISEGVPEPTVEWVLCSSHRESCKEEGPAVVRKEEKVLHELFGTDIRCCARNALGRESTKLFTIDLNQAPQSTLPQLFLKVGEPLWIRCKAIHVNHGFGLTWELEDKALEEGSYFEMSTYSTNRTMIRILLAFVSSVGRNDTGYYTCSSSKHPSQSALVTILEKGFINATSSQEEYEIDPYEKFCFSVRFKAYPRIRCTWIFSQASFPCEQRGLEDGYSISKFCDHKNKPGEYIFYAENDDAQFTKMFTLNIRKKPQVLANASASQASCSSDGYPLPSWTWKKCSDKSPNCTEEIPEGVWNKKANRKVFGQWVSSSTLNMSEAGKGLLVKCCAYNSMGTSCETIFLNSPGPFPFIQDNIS
Test: CD135 binding ELISA: plate coated with 10 nM recombinant CD135

binding: binds
B1: wild type murine Flt3L (ligand)
chain: MTPDCYFSHSPISSNFKVKFRELTDHLLKDYPVTVAVNLQDEKHCKALWSLFLAQRWIEQLKTVAGSKMQTLLEDVNTEIHFVTSCTFQPLPECLRFVQTNISHLLKDTCTQLLALKPCIGKACQNFSRCLEVQCQPDSSTLLPPRSPIALEATELPEPRPRQ
notes: Made in HEK293F cells and glycosylated (multiple bands around 30 kDa); also called WT Flt3L; WT; not shown: it was purified over a HisTrap HP column, so it probably carries a His tag
